Source: US20180022779A1
Results are given in words; binding and its absence hold for the method and conditions named. In cells and extracts the contact can be indirect. Some results given as binding are weak or reduced against the parent protein; the word gives no strength.

By UniProt entry, the sequences of proteins in these tests, tags left out. Residues count along the entry.
UniProt P70313, residues 2-1202: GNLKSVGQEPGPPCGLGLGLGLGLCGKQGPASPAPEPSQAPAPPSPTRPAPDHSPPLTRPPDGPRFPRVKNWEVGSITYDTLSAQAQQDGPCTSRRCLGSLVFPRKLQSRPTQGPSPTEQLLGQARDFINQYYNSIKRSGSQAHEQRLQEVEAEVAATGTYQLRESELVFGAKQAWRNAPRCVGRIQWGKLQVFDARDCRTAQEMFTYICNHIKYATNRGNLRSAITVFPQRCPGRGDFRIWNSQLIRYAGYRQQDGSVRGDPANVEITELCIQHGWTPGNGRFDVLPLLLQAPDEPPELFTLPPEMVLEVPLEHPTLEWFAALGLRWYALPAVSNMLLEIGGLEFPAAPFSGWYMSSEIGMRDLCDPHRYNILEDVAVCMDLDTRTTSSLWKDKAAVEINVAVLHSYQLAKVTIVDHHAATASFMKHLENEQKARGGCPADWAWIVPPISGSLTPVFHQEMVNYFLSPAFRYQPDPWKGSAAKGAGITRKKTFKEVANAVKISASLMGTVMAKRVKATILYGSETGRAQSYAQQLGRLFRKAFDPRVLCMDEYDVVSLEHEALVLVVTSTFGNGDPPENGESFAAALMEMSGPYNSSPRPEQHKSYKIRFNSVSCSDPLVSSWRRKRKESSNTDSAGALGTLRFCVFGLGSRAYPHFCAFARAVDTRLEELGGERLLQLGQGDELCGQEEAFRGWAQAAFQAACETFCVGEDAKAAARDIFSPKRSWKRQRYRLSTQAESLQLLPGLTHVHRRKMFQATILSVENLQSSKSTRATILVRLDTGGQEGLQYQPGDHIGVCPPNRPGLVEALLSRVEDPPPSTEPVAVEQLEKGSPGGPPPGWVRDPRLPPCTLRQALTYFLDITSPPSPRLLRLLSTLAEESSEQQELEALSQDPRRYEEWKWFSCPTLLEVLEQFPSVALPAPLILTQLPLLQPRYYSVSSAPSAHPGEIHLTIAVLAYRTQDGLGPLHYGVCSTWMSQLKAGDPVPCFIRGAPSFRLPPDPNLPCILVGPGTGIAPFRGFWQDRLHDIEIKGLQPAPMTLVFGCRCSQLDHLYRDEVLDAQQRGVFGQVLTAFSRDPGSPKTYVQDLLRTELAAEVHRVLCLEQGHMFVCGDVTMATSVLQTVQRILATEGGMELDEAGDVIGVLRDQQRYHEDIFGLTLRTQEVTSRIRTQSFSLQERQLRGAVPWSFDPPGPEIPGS
UniProt P01942, residues 2-142: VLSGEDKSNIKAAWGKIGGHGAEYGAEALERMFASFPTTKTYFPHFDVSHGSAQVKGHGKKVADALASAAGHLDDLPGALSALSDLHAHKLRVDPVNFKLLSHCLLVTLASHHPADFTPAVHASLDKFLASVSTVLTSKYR

Target: mouse eNOS (endogenous, thoracodorsal arteries) (mouse) (UniProt P70313)
Test: proximity ligation assay and co-immunoprecipitation (IP Hb α, blot eNOS) from mouse thoracodorsal arteries

- binding: binds
Substance: mouse Hb α (endogenous, thoracodorsal arteries) (from UniProt P01942 2-142)
